Experimental findings from article PMC11585782, “The Plastidial Protein Acetyltransferase GNAT1 Forms a Complex With GNAT2, yet Their Interaction Is Dispensable for State Transitions” (Molecular & Cellular Proteomics : MCP, 2024) are described below.

Chains of the proteins cited; added tags and fusions are not shown. Residues count along the entry.
UniProt Q7X9V3, residues 59-258: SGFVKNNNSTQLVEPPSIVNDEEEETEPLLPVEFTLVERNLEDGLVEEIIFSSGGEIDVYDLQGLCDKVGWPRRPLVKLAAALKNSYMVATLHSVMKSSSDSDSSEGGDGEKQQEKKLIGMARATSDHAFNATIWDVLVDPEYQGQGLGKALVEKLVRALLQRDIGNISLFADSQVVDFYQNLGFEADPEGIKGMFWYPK

Test in all cases: affinity purification with mass spectrometry; GFP-Trap A beads with 2 mg leaf protein of GNAT1-, GNAT2- or GNAT3-GFP overexpressing Arabidopsis lines, 2 h at 4 °C; extraction buffer 50 mM HEPES-KOH pH 7.5, 150 mM NaCl, 10% glycerol, 2 mM EDTA, 5 mM DTT, 0.5% Triton X-100; label-free quantification against a chloroplast-targeted GFP control line; four biological replicates
Assay [1] concerns the target T1, GNAT1-GFP (Arabidopsis thaliana) (UniProt Q9C666).
T1 sequence: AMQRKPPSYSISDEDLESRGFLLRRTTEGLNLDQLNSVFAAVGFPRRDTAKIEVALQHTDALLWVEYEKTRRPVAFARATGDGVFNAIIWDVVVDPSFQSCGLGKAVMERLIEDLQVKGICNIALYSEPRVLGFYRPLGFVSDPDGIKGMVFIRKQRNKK

In assay [2] the target is GNAT2-GFP (Arabidopsis thaliana) (UniProt Q7X9V3).
Assay [3] has as its target T2, GNAT3-GFP (Arabidopsis thaliana) (UniProt Q940H2).
T2 sequence: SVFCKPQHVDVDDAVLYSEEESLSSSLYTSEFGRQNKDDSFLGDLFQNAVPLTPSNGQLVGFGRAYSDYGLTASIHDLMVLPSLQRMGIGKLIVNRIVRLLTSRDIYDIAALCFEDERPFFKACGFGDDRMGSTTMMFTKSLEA

Results are given in words; binding and its absence hold for the method and conditions named. Binding seen in cells or lysates may run through a third protein. Here binding means that the protein was enriched with, or labelled near, the bait; the list need not be complete. For some assays here: No binding means not detected with the bait. For some assays here: Sequences can lack the tags named with a protein.

B1: Cyclophilin-like peptidyl-prolyl cis-trans isomerase family protein (protein, UniProt F4HTT6 75-317)
chain: DTIANPNLTNCENRIPTKKAFIDVSIDGEPIGRIIIGLYGDDVPAGTARFSSIVSGKAGITYRRKDFVKIMPGYVQHGGIRSYGVDAERATAAVGSLQNLIEEWERGKRGEICNVNKAGSVGIVVRDPSKPPPKTKLVARNGKLVVEEEVIAVGPNGTEFVITAVDSPELEDSVLVIGKVLEGMGVVEKMREVKTVRDNTSSPYFRVAKVIGDKRAVVAERGFNRPYSKVVVTNCGLIESQTL
With B1, the binding entry in assay [1] and in assay [2] was “binds” each time.

B2: FTSZ1-1 (protein, UniProt Q42545 67-433)
chain: SFSPMESARIKVIGVGGGGNNAVNRMISSGLQSVDFYAINTDSQALLQSSAENPLQIGELLTRGLGTGGNPLLGEQAAEESKDAIANALKGSDLVFITAGMGGGTGSGAAPVVAQISKDAGYLTVGVVTYPFSFEGRKRSLQALEAIEKLQKNVDTLIVIPNDRLLDIADEQTPLQDAFLLADDVLRQGVQGISDIITIPGLVNVDFADVKAVMKDSGTAMLGVGVSSSKNRAEEAAEQATLAPLIGSSIQSATGVVYNITGGKDITLQEVNRVSQVVTSLADPSANIIFGAVVDDRYTGEIHVTIIATGFSQSFQKTLLTDPRAAKLLDKMGSSGQQENKGMSLPHQKQSPSTISTKSSSPRRLFF
On to B2, for which the binding entry in assay [1] was “binds”.

B3: GNAT3 (enzyme, UniProt Q940H2 94-237)
chain: T2 sequence
As for B3, in assay [2], the binding entry is “binds”.

B4: Cold-Responsive 6.6 (protein, UniProt P31169 1-66)
chain: MSETNKNAFQAGQAAGKAEEKSNVLLDKAKDAAAAAGASAQQAGKSISDAAVGGVNFVKDKTGLNK
In the case of B4, the binding entry in assay [1] and in assay [2] was “binds” each time.

B5: Cold-Regulated 15B (protein, UniProt Q9SIN5 42-141)
chain: AQRKKSLIYAVKSDGNILDDLNEATKKASDFVTDKTKEALADGEKTKDYIVEKTIEANETATEEAKKALDYVTEKGKEAGNKAAEFVEGKAEEAKNATKS
As for B5, in assay [2], the binding entry was “binds”.

B6: RPS17 (protein, UniProt P16180 50-149)
chain: MKTMQGRVVCATSDKTVAVEVVRLAPHPKYKRRVRMKKKYQAHDPDNQFKVGDVVRLEKSRPISKTKSFVALPVIARAARKAEAGGDELLGLPLESQQPA
For B6, in assay [2], the binding entry was “binds”.

B7: GNAT1 (enzyme, UniProt Q9C666 38-197)
chain: T1 sequence
Take B7: the binding result in assay [3] was “no binding”; in assay [2], “binds”.

B8: RPL9 (protein, UniProt P25864 43-197)
chain: QKKAKKLRKVILKEDVTDLGKQGQLLDVKAGFFRNFLLPTGKAQLMTPLLLKELKMEDERIEAEKQRVKEEAQQLAMVFQTVGAFKVKRKGGKGKLIFGSVTAQDLVDIIKSQLQKDIDKRLVSLPEIRETGEYIAELKLHPDVTARVKINVFAN
In the case of B8, the binding entry in assay [2] is given as “binds”.
